Laboratory results: US20180228743A1, “COMPOUNDS AND METHODS OF PROMOTING MYELINATION” (Case Western Reserve University, priority 2016, published 2018)
Where “and” joins values, the source holds several entries; their conditions need not be identical. Equal entries are not always repeated. Structures can show the parent of a compound that is named as a salt.

What follows are compounds tested on EpiSC-derived OPCs (assay: High-throughput screening of 3,000 bioactive small molecules for MBP+ oligodendrocyte formation from OPCs). Conditions: 2 μM, 72 h, cells scored per well.
Type: cell-based, mouse
Source text: Plates were imaged on the Operetta High Content Imaging and Analysis system (PerkinElmer) and a set of 6 fields captured from each well resulting in an average of 1200 cells being scored per well. Analysis (PerkinElmer Harmony and Columbus software) began by identifying intact nuclei stained by DAPI; that is, those traced nuclei that were larger than 300 μm^2 in surface area. Each traced nucleus region was then expanded by 50% and cross-referenced with the […] (MBP) stain to identify oligodendrocyte nuclei, and from this the percentage of oligodendrocytes was calculated. In some experiments, the total process length of MBP+ oligodendrocytes was calculated as previously described.
EpiSC-derived OPCs were grown and expanded in poly-ornithine and laminin-coated flasks before harvesting for plating. Cells were dispensed in differentiation media supplemented with Noggin (R&D Systems; 100 ng/ml), Neurotrophin 3 (R&D Systems; 10 ng/ml), cAMP (Sigma; 50 μM), and IGF-1 (R&D Systems; 100 ng/ml)) using a Biotek EL406 Microplate Washer Dispenser (Biotek) equipped with 5 μL dispense cassette (Biotek), into poly-D-lysine/laminin (Sigma, L2020; 4 μg/ml)-coated sterile, 384-well, CellCarrier ultra plates (PerkinElmer), to a final density of 12,500 cells per well and allowed to attach for 45 min before addition of drug. A 3 mM stock of bioactive compound library in dimethylsulphoxide (DMSO) were prepared in an Abgene storage 384-well plate (ThermoFisher Scientific; AB1055). These were added to assay plates using a 50 nL solid pin tool attached to Janus automated workstation (Perkin Elmer), resulting in a final screening concentration of 2 μM. Cells were incubated at 37° C. for 1 hour and then T3 (Sigma; 40 ng/ml) was added to all wells except negative controls, to which FGF (20 ng/ml) was added instead. Negative controls and T3-alone were included in each assay plate. After incubation at 37° C. for 72 h, cells were fixed, washed and stained similar to 96-well OPC assay protocol, although all the washing steps were performed using a Biotek EL406 Microplate Washer Dispenser (Biotek) equipped with a 96-well aspiration manifold. Cells were stained with DAPI (Sigma; 1 μg/ml) and MBP antibody (Abcam, ab7349; 1:100). Plates were imaged on the Operetta High Content Imaging and Analysis system (PerkinElmer) and a set of 4 fields captured from each well resulting in an average of 700 cells being scored per well. Analysis was performed as in High-Content Imaging and Analysis, above. All plates for the primary screen were processed and analyzed simultaneously to minimize variability. Molecules causing more than 20% reduction in nuclear count relative to DMSO control wells were removed from consideration, and hits were called on the basis of largest fold-increase in percentage of MBP+ oligodendrocytes relative to DMSO controls within the same plate.

In order of rising “Total Cells” value:
1. CN1CCC[C@@H]1CCO[C@](C)(c1ccccc1)c1ccc(Cl)cc1 [Clemastine fumarate]  449
2. Cc1cc(Nc2cc(CN3CCOCC3)c3nc(C)c(Cc4ccc(Cl)cc4F)n3n2)n[nH]1 [LY2784544]  480
3. Cc1cc(C)c(CNC(=O)c2cc(-c3ccc(CN4CCOCC4)cc3)cc3c2cnn3C2CCCC2)c(=O)[nH]1 [EPZ005687]  610
4. Cl.Clc1ccc(N2CCN(Cc3c[nH]c4ncccc34)CC2)cc1 [L-745,870 hydrochloride]  647
5. Cl.O[Si](CCCN1CCCCC1)(c1ccc(F)cc1)C1CCCCC1 (centres unmarked) [Hexahydro-sila-difenidol hydrochloride, p-fluoro analog]  654
6. Clc1ccc(C(Cn2ccnc2)OCc2ccc(Sc3ccccc3)cc2)c(Cl)c1 (centres unmarked) [Fenticonazole Nitrate]  687
7. CC(C(O)c1ccc(O)cc1)N1CCC(Cc2ccccc2)CC1 (centres unmarked) [lfenprodil Tartrate]  693
8. Clc1ccc(CSC(Cn2ccnc2)c2ccc(Cl)cc2Cl)cc1 (centres unmarked) [Sulconazole Nitrate]  700
9. Cc1cc(NC(=O)Nc2ccc(N(C)C)cc2)c2cc(F)cc(F)c2n1 [SB408124]  704
10. O=C(C1CCCCC1)N1CC(=O)N2CCc3ccccc3C2C1 (centres unmarked) [Praziquantel]  728
11. CCCCOc1ccc(OCCCN2CCOCC2)cc1 [Pramoxine HCl]  755
12. C[C@]12CC[C@@H]3c4ccc(O)cc4C[C@@H](CCCCCCCCC[S+]([O-])CCCC(F)(F)C(F)(F)F)[C@H]3[C@@H]1CC[C@@H]2O (some centres unmarked) [Fulvestrant]  758
13. N=C(N)c1ccc(OCCCCCOc2ccc(C(=N)N)cc2)cc1 [Pentamidine isethionate]  758
14. CCN(CC)CCCCCCCCOC(=O)c1cc(OC)c(OC)c(OC)c1.Cl [TMB-8 hydrochloride]  758
15. Cc1nnc(C(=O)NC(C)(C)c2nc(C(=O)NCc3ccc(F)cc3)c(O)c(=O)n2C)o1 [Raltegravir (MK-0518), Raltegravir]  768
16. Clc1ccc(C(Cn2ccnc2)OCc2csc3c(Cl)cccc23)c(Cl)c1 (centres unmarked) [Sertaconazole nitrate]  777
17. FC(F)(F)c1ccc(/C=C/c2nc(COc3ccc(CCCCn4ccnn4)cc3)co2)cc1 [Mubritinib (TAK 165), Mubritinib]  779
18. Varenicline tartrate  783
19. Clc1ccc(CCC(Cn2ccnc2)Sc2c(Cl)cccc2Cl)cc1 (centres unmarked) [Butoconazole nitrate]  809
20. c1ccc(-c2ccc(C(c3ccccc3)n3ccnc3)cc2)cc1 (centres unmarked) [Bifonazole]  820
21. (±)-Vesamicol  821
22. CC(=O)N1CCN(c2ccc(OCC3COC(Cn4ccnc4)(c4ccc(Cl)cc4Cl)O3)cc2)CC1 (centres unmarked) [Ketoconazole]  847
23. OCCOCCN1CCN(C(c2ccccc2)c2ccc(Cl)cc2)CC1 (centres unmarked) [Hydroxyzine 2HCl]  896

With Clc1ccccc1C(c1ccccc1)(c1ccccc1)n1ccnc1 [Clotrimazole] the “Total Cells” value was 748 and 666.

Same assay, conditions: 2 μM, 72 h, cells scored per well; HCl

In order of rising “Total Cells” value:
1. O=C(c1ccc(OCCN2CCCCC2)cc1)c1c(-c2ccc(O)cc2)sc2cc(O)ccc12 [Raloxifene HCl]  777
2. O=C1Cc2cc(CCN3CCN(c4nsc5ccccc45)CC3)c(Cl)cc2N1 [Ziprasidone HCl]  1003

Same assay, conditions: 2 μM, 72 h, cells scored per well; hydrochloride monohydrate

For O=C1Cc2cc(CCN3CCN(c4nsc5ccccc45)CC3)c(Cl)cc2N1 [Ziprasidone hydrochloride monohydrate], the “Total Cells” value was 851.

Same assay, conditions: 2 μM, 72 h, cells scored per well; listed as Raloxifene hydrochloride, HCl

O=C(c1ccc(OCCN2CCCCC2)cc1)c1c(-c2ccc(O)cc2)sc2cc(O)ccc12 [Raloxifene HCl] was tested, and the “Total Cells” value was 924.

Same assay, conditions: 2 μM, 72 h, cells scored per well; listed as lfenprodil tartrate

In the case of CC(C(O)c1ccc(O)cc1)N1CCC(Cc2ccccc2)CC1 (centres unmarked) [lfenprodil Tartrate], the “Total Cells” value is reported as 739.
